These are yes or no findings as the source states them, for the method shown. Binding seen in cells or lysates may run through a third protein. Some binding calls cover weakened binding; strength is not graded here. Where a sequence is shown, tags or fusion partners need not be part of it.
Biological target: Spike Activator 1 (SPK1), BiFC fusions NYN1-SPK1 and CYN1-SPK1 (Phalaenopsis aphrodite)
Assay: split reporter; BiFC with split YFP (residues 1-174 and 175-239) in orchid cells after ballistic bombardment; 24 h in the dark; confocal microscopy; NLS(VirD2)-mRFP as nuclear control

B1: Spike Activator 1 (SPK1), BiFC fusions NYN1-SPK1 and CYN1-SPK1 (protein, UniProt A0A5Q0QTC1 1-304)
chain: MALEAVVFHDLLSCNVKDMYSPWDIAGLVDEDKTLPFYDEWKASCSSLTGQGFQEPPDLGGATAISATAQKENKAPATCSESNGRKKRRRTKGLTNQEEAENQRMTHIAVERNRRKQMNEYLAVLRSLMPASYAQRGDQASIVGGAINYVKELQQIVQFLEVRKQLKHRGDNRVQDLKPLASFFSFPQYSLTDTAAAAAGGVDTVPANPSAVADIEVTIVESHASLKILCRRRPKQLLKLVVGLQSLRLSTLHLNATSFGAMVLFTFSLKVEEDCQLATVDEIATAVHQIVVRIHEEEGFYTSS
binding: binds

From article PMC6862315
